# Screening data, single-dose tests

By UniProt entry, the sequences of proteins in these tests, tags left out. Residues count along the entry.
UniProt Q4DA54, 1-478: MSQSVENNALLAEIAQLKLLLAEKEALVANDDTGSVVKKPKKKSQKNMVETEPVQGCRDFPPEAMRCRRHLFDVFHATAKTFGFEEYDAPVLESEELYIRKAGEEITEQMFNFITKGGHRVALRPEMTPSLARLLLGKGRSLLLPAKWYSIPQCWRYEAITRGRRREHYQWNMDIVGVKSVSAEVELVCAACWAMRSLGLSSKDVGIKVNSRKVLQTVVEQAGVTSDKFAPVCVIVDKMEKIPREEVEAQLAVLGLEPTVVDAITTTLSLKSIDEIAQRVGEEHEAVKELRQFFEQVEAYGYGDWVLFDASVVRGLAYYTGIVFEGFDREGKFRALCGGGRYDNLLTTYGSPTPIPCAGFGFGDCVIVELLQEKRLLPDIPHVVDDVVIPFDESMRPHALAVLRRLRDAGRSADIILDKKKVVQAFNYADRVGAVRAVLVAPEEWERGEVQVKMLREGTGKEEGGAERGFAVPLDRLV
UniProt A4I591, 1-473: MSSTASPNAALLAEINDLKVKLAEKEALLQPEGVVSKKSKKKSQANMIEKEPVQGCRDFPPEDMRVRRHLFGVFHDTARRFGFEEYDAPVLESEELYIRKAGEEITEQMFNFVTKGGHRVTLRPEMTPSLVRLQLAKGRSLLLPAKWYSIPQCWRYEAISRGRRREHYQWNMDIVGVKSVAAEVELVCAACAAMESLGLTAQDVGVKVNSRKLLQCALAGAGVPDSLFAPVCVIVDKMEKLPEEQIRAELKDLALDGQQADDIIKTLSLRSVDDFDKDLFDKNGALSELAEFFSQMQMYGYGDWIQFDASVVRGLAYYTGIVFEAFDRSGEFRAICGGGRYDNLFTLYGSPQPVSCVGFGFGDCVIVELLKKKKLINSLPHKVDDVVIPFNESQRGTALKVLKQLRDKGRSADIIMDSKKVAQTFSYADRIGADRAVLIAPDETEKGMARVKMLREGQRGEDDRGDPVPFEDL
UniProt Q8IDJ8, 1-583: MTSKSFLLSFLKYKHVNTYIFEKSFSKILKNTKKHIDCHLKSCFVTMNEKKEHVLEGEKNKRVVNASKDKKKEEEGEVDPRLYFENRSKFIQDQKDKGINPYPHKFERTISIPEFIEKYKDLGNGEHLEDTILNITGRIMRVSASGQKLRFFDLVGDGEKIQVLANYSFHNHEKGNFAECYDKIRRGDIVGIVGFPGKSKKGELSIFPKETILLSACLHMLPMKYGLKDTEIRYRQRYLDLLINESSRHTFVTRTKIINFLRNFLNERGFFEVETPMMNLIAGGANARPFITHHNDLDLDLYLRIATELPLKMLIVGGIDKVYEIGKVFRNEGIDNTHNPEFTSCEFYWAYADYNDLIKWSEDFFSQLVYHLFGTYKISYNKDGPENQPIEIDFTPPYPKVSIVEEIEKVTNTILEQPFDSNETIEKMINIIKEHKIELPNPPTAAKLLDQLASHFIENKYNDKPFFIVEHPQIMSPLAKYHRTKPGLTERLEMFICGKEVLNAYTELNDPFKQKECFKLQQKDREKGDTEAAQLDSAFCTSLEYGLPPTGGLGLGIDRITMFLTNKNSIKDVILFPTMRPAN
UniProt P9WNZ1, whole entry: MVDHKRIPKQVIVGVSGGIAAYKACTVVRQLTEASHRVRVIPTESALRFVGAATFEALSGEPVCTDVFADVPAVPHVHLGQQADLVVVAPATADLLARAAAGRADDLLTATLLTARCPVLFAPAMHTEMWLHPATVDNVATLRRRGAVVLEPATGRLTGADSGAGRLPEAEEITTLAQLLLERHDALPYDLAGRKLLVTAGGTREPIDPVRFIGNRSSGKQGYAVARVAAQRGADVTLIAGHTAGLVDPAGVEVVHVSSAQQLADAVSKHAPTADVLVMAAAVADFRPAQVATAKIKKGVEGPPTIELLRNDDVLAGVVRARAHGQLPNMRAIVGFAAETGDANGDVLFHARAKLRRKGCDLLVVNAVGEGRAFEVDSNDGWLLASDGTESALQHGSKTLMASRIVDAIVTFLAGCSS

TcHisRS: 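Histidine-tRNA ligase, Trypanosoma cruzi CL Brener (UniProt Q4DA54). Enzyme assay of histidyl-tRNA synthetase; the read-out is not stated. Compounds at 30 µM. The record gives no direction; compounds that gave an IC50 in retests scored well above the rest, so higher reads as stronger inhibition. Of about 69,000 compounds tested this way, about 31 (0.045%) reached 50% or more in at least one test.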
LiHisRS: 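Enzyme assay of histidyl-tRNA synthetase; the read-out is not stated. Target: Histidine-tRNA ligase, Leishmania infantum (UniProt A4I591). Tested at 30 µM. The record gives no direction; compounds that gave an IC50 in retests scored well above the rest, so higher reads as stronger inhibition. The assay is labelled LdHisRS but filed under L. infantum. Of about 69,000 compounds tested this way, about 410 (0.6%) reached 50% or more in at least one test.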
Toxoplasma: 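Assay of Toxoplasma gondii numbers, read through their beta-galactosidase reporter with a colour substrate. Tested at 10 µM. Higher reads as fewer parasites (inferred from which compounds were picked for retests). Size under these conditions: about 67,000 compounds, about 260 of them at 50% or above in at least one test.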
PfKRS1: 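Enzyme assay of the cytosolic lysyl-tRNA synthetase in 384-well plates, read by luminescence. Target: Lysine-tRNA ligase, Plasmodium falciparum 3D7 (UniProt Q8IDJ8). Compounds at 30 µM. Higher reads as stronger inhibition, judged from the few compounds that gave an IC50. About 69,000 compounds were tested under these conditions; 0.071% (about 49) showed 50% or more at least once.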
CoaBC: 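Enzyme assay of CoaBC with a phosphate dye (Biomol Green) read at 650 nm. Target: Coenzyme A biosynthesis protein CoaBC, Mycobacterium tuberculosis (UniProt P9WNZ1). Concentration: 30 µM. Higher reads as stronger inhibition, judged from the few compounds that gave an IC50. Most strong results did not repeat in a second test. Size under these conditions: about 67,000 compounds, about 40 of them at 50% or above in at least one test.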

The filed quantity is “Percent Effect” (%).
The controls that fix the scale are not given in the record; negative values are as filed.
This is an unselected part of the compounds tested.

{"structure": "O=C(c1cccnc1N1CCN(CCO)CC1)N1CCCC1", "TcHisRS": 0, "LiHisRS": 16.07, "PfKRS1": 7.775, "CoaBC": 4.971}
{"structure": "Cc1ccc(C(=O)N2C[C@@H]3CC[C@H](C2)N(CC2CCC2)C3)s1", "TcHisRS": 11.35, "LiHisRS": 21.92, "PfKRS1": -1.604, "CoaBC": -3.182}
{"structure": "Cc1noc([C@H]2CC[C@@H]3[C@@H](CCN3c3ncccn3)O2)n1", "TcHisRS": 1.105, "LiHisRS": 13.51, "PfKRS1": 4.277, "CoaBC": 3.713}
{"structure": "Cc1cccc(CN2CCc3nnc(Cn4cccc4)n3CC2)n1", "TcHisRS": 5.825, "LiHisRS": 11.54, "PfKRS1": 4.139, "CoaBC": 7.593}
{"structure": "CC1CCCN(Cc2coc(-c3cccc(F)c3)n2)C1", "stereo": "configuration not stated", "TcHisRS": 3.817, "LiHisRS": 13.7, "Toxoplasma": -0.6353, "PfKRS1": -3.675, "CoaBC": 0.7229}
{"structure": "O=C(C1CCCC1)N1CCC(c2n[nH]c3nccnc23)CC1", "TcHisRS": 12.09, "LiHisRS": 10.14, "Toxoplasma": 17.21, "PfKRS1": 2.712, "CoaBC": 2.913}
{"structure": "CNC(=O)N1CCc2cc(C(=O)NCC3CC3)c(NC(C)C)nc2CC1", "TcHisRS": -25.74, "LiHisRS": 15.07, "Toxoplasma": -0.4219, "PfKRS1": 7.364, "CoaBC": 2.773}
{"structure": "CSCC(C)N(C)S(=O)(=O)c1ccc(Cl)cc1C#N", "stereo": "configuration not stated", "TcHisRS": 4.217, "LiHisRS": 6.593, "Toxoplasma": 1.687, "PfKRS1": 0.5343, "CoaBC": -0.122}
{"structure": "Cc1cc(C)n(-c2ccc(CNCc3ccc(OC(C)C)cc3)cn2)n1", "TcHisRS": 18.63, "LiHisRS": 16.8, "Toxoplasma": -4.799, "PfKRS1": 7.288, "CoaBC": 13.83}
{"structure": "N#Cc1ccc(C2CC(=O)Nc3c(C(=O)O)nsc32)cc1", "stereo": "configuration not stated", "TcHisRS": 0, "LiHisRS": 5.172, "Toxoplasma": 6.397, "PfKRS1": 1.641, "CoaBC": -4.157}
{"structure": "[H][C@@]12COC[C@]1([H])[C@@H](OCc1cccnc1)CN2C(=O)CNC(C)=O", "Toxoplasma": 8.173}
{"structure": "Cc1cccc(=O)n1CCC(=O)N1CC[C@](C)(O)[C@H](C)C1", "TcHisRS": -4.255, "LiHisRS": 18.57, "Toxoplasma": -17.35, "PfKRS1": 4.726, "CoaBC": -2.254}
{"structure": "CC(C)N(C)C[C@H]1C[C@@H]2CN(Cc3ccco3)C[C@@H]2O1", "TcHisRS": 2.913, "LiHisRS": 13.46, "PfKRS1": 3.449, "CoaBC": -2.703}
{"structure": "COC1CCN(c2cc(C(C)C)nc3ccnn23)C1", "stereo": "configuration not stated", "TcHisRS": -7.143, "LiHisRS": 19.44, "Toxoplasma": -9.82, "PfKRS1": 7.055, "CoaBC": 7.54}
{"structure": "COc1ccc(CN2CCn3cc(CN4CCCCC4)nc3C2)cc1", "TcHisRS": 5.435, "LiHisRS": 2.913, "PfKRS1": -5.254, "CoaBC": -0.8872}
{"structure": "CC(OCc1ccccc1)C(=O)NC1CCN(CC(N)=O)CC1", "stereo": "configuration not stated", "TcHisRS": 6.349, "LiHisRS": 10.96, "Toxoplasma": -9.183, "PfKRS1": 2.809, "CoaBC": 9.298}
{"structure": "CN1CC2(CCCN(CCOCc3ccccc3)C2)OC1=O", "stereo": "configuration not stated", "TcHisRS": 7.035, "LiHisRS": 22.35, "Toxoplasma": 7.98, "PfKRS1": 3.861, "CoaBC": 6.796}
{"structure": "Cc1ccc(C(C)NC(=O)CCc2cnn(C)c2)cc1F", "stereo": "configuration not stated", "TcHisRS": 2.632, "LiHisRS": 3.571, "Toxoplasma": 3.045, "PfKRS1": 1.172, "CoaBC": 6.358}
{"structure": "COCCC(=O)N1Cc2nc3c(C)c(-c4cccs4)nn3c(O)c2C1", "TcHisRS": 1.429, "LiHisRS": 6.711, "Toxoplasma": -0.566, "PfKRS1": 0.1283, "CoaBC": 11.42}
{"structure": "Cc1ccc(CCNC(=O)N2CCC(Cc3cnn(C)c3)C2)cn1", "stereo": "configuration not stated", "TcHisRS": -5, "LiHisRS": -1.37, "Toxoplasma": -2.539, "PfKRS1": 0.9923, "CoaBC": 4.348}
{"structure": "Nc1nc(N)c2c(n1)OC1(CCN(C(=O)CC3CCNCC3)CC1)C2", "TcHisRS": 5.747, "LiHisRS": 2.878, "Toxoplasma": 5.725, "PfKRS1": -0.2136, "CoaBC": -0.7177}

For reference, 2 entries once more:

- O=C(C1CCCC1)N1CCC(c2n[nH]c3nccnc23)CC1 | TcHisRS: 12.09%; LiHisRS: 10.14%; Toxoplasma: 17.21%; PfKRS1: 2.712%; CoaBC: 2.913%
- Cc1ccc(CCNC(=O)N2CCC(Cc3cnn(C)c3)C2)cn1 (configuration not stated) | TcHisRS: -5%; LiHisRS: -1.37%; Toxoplasma: -2.539%; PfKRS1: 0.9923%; CoaBC: 4.348%

Data taken from ChEMBL document CHEMBL3988442, “University of Dundee, Small-Polar-MMV Screening Library” (2021).